From PMC4749557
No constants are given. Whether binding was seen depends on the method and setting. Binding seen in cells or lysates may run through a third protein. A yes stands for co-enrichment or nearness to the bait. Other partners may have been found. For part of these data: Sequences can lack the tags named with a protein.

T1: FLAG–HA tagged Prdm14 (FH-Prdm14), stably expressed in mESCs (mouse) (UniProt E9Q3T6)
T1 sequence: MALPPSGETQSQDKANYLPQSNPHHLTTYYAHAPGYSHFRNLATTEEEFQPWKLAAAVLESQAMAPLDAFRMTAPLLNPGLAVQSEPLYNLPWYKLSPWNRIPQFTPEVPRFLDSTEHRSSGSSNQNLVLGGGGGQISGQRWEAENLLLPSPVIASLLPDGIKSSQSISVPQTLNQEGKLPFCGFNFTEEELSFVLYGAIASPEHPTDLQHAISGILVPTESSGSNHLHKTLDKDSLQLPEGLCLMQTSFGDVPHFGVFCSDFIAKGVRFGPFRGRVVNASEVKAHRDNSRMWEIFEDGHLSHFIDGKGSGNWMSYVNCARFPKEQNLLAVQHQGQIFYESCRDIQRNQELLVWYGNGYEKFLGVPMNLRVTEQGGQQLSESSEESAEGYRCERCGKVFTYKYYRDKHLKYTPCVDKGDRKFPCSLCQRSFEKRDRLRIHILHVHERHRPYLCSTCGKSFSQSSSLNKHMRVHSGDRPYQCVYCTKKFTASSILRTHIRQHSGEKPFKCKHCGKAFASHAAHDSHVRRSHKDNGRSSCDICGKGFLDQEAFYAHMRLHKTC

T2: endogenous Prdm14 of wt mESCs (mouse (endogenous in mESCs)) (UniProt E9Q3T6)
T2 sequence: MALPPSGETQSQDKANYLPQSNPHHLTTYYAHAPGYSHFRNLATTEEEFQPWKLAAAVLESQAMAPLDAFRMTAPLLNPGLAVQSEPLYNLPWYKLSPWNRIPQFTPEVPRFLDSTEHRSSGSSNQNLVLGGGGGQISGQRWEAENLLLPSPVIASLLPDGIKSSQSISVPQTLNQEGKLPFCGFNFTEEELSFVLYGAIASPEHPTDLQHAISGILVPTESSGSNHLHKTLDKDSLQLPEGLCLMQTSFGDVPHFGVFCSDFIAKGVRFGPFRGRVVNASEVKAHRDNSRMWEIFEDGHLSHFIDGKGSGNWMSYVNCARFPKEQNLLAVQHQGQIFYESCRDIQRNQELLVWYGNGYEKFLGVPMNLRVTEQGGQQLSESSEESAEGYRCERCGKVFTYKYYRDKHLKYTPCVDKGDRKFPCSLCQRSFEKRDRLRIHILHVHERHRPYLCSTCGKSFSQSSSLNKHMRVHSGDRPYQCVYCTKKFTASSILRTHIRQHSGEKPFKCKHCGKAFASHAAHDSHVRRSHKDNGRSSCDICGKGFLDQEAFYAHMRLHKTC


Target: T1, FLAG–HA tagged Prdm14 (FH-Prdm14), stably expressed in mESCs (mouse)
Experiment: affinity purification with mass spectrometry; two-step immunopurification (FLAG M2 beads with peptide elution, then HA antibody) from FH-Prdm14 mESC nuclear extracts, wt mESCs as control; SDS-PAGE, silver stain, mass spectrometry

binding	Binder
binds	Tblr1, endogenous in mESCs (protein, UniProt Q8BHJ5 1-514) MSISSDEVNFLVYRYLQESGFSHSAFTFGIESHISQSNINGALVPPAALISIIQKGLQYVEAEVSINEDGTLFDGRPIESLSLIDAVMPDVVQTRQQAYRDKLAQQHAAAAAAAAAATNQQGSAKNGENTANGEENGAHTIANNHTDMMEVDGDVEIPSNKAVVLRGHESEVFICAWNPVSDLLASGSGDSTARIWNLSENSTSGPTQLVLRHCIREGGQDVPSNKDVTSLDWNSEGTLLATGSYDGFARIWTKDGNLASTLGQHKGPIFALKWNKKGNFILSAGVDKTTIIWDAHTGEAKQQFPFHSAPALDVDWQSNNTFASCSTDMCIHVCKLGQDRPIKTFQGHTNEVNAIKWDPTGNLLASCSDDMTLKIWSMKQDNCVHDLQAHNKEIYTIKWSPTGPGTNNPNANLMLASASFDSTVRLWDVDRGICIHTLTKHQEPVYSVAFSPDGRYLASGSFDKCVHIWNTQTGALVHSYRGTGGIFEVCWNAAGDKVGASASDGSVCVLDLRK
binds	Tbl1, endogenous in mESCs (protein, UniProt Q9QXE7 1-527) MSITSDEVNFLVYRYLQESGFSHSAFTFGIESHISQSNINGTLVPPAALISILQKGLQYVEAEISINEDGTVFDGRPIESLSLIDAVMPDVVQTRQQAFREKLAQQQANAAAAAAAAAATATSTAATTPAAAAQQNPPKNGEATVNGEENGAHAINNHSKPMEIDGDVEIPPSKATVLRGHESEVFICAWNPVSDLLASGSGDSTARIWNLNENSNGGSTQLVLRHCIREGGHDVPSNKDVTSLDWNSDGTLLATGSYDGFARIWTEDGNLASTLGQHKGPIFALKWNKKGNYILSAGVDKTTIIWDAHTGEAKQQFPFHSAPALDVDWQNNTTFASCSTDMCIHVCRLGCDRPVKTFQGHTNEVNAIKWDPSGMLLASCSDDMTLKIWSMKQDACVHDLQAHSKEIYTIKWSPTGPATSNPNSNIMLASASFDSTVRLWDVERGVCIHTLTKHQEPVYSVAFSPDGKYLASGSFDKCVHIWNTQSGSLVHSYRGTGGIFEVCWNARGDKVGASASDGSVCVLDLRK
binds	Mtgr1 (myeloid translocation gene related 1), endogenous in mESCs (protein, UniProt O70374 1-594) MVGVPGAAAFQLGCEKRVPAMPGSPVEVKIQSRSSPPIMPPLPPINPGGPRPVSFTPTALSNGINHSPPTLNGAPSPPQRFSNGPASSTSSALTNQQLPATCGARQLSKLKRFLTTLQQFGNDISPEIGEKVRTLVLALVNSTVTIEEFHCKLQEATNFPLRPFVIPFLKANLPLLQRELLHCARAAKQTPSQYLAQHEHLLLNTSIASPADSSELLMEVHGNGKRPSPERRDENNFERDTVPPEPPAKRVCTISPAPRHSPALTVPLMNPGGQFHPTPPPLQHYTLEDIATSHLYREPNKMLEHREVRERHHNLSLNGGYQDELVDHRLTEREWADEWKHLDHALNCIMEMVEKTRRSMAVLRRCQESDREELNYWKRRFNENTELRKTGTELVSRQHSPGSTDSLSNDSQREFTSRPATGYVPVEFWKKTEEAVNKVKIQAMSEVQKAVAEAEQKAFEVIATERARMEQTIADVKRQAAEDAFLVINEQEESTENCWNCGRKASETCSGCNIARYCGSFCQHKDWERHHRLCGQSLHGHSPHSQSRPLLPGGRGSARSADCSVPSPALDKTSATTSRSSTPASVTAIDANGL
binds	Mtg16, endogenous in mESCs (protein, UniProt O54972 1-620) MSQASTTTLESGALLSGPRGLQYGSPAHRKEKAAAMPDSPAEVKTQPRSTPPSMPPPPPTSSQGATRPPSFTPHTHGEDGPATSLPHGRFHGCLKWSMVCLLMNGSSHSPTAIHGAPSTPNGFSNGPATSSTASLSTQHLPPACGARQLSKLKRFLTTLQQFGSDISPEIGERVRTLVLGLVNSTLTIEEFHAKLQEATNFPLRPFVIPFLKANLPLLQRELLHCARLAKQTPAQYLAQHEQLLLDASATSPVDSSELLLEVNENGKRRTPDRTKENGSDRDPLHPDHLSKRSCTLSPAQRCSPSNGLPHPTPPPPPHYRLEDMAMAHHFRDSYRHPDPRELRERHRPLAIPGSRQEEVIDHRLTEREWAEEWKHLNSLLNCIMDMVEKTRRSLTVLRRCQEADREELNHWIRCYSDSEEGKKGPTPISARSLNSCSGPEGSQLDVHRDFTPRTLSGYMPEEIWRKAEEAVNEVKRQAMSELQKAVSDAERKAHELITTERAKMERALAEAKRQASEDALTVINQQEDSSESCWNCGRKASETCSGCNAARYCGSFCQHKDWEKHHHVCGQSLQGPAAAVADPLPGQPDATASPSEAGSAGPSRPCSPGPPGPLDAAVPR
binds	Mtg8, endogenous in mESCs (protein, UniProt Q61909 1-577) MPDRTEKHSTMPDSPVDVKTQSRLTPPAMPPPPTTQGAPRTSSFTPTTLTNGTSHSPTALNGAPSPPNGFSNGPSSSSSSSLANQQLPPACGARQLSKLKRFLTTLQQFGNDISPEIGERVRTLVLGLVNSTLTIEEFHSKLQEATNFPLRPFVIPFLKANLPLLQRELLHCARLAKQNPAQYLAQHEQLLLDASTTSPVDSSELLLDVNENGKRRTPDRTKENGFDREPLHSEHPSKRPCTISPGQRYSPNNGLSYQPNGLPHPTPPPPQHYRLDDMAIAHHYRDSYRHPSHRDLRDRNRPMGLHGTRQEEMIDHRLTDREWAEEWKHLDHLLNCIMDMVEKTRRSLTVLRRCQEADREELNYWIRRYSDAEDLKKGGSSSSSHSRQQSPVNPDPVALDAHREFLHRPASGYVPEEIWKKAEEAVNEVKRQAMTELQKAVSEAERKAHDMITTERAKMERTVAEAKRQAAEDALAVINQQEDSSESCWNCGRKASETCSGCNTARYCGSFCQHKDWEKHHHICGQTLQAPQQGDTPAVSSSVTPSSGAGSPMDTPPAATPRSTTPGTPSTIETTPR

Target: T2, endogenous Prdm14 of wt mESCs (mouse (endogenous in mESCs))
Experiment: affinity purification with mass spectrometry; proteins recovered with endogenous Prdm14 captured by Mb(S4) from wt mESC extracts; mass spectrometry

binding	Binder
binds	Mtgr1 (myeloid translocation gene related 1), endogenous in mESCs (protein, UniProt O70374 1-594) MVGVPGAAAFQLGCEKRVPAMPGSPVEVKIQSRSSPPIMPPLPPINPGGPRPVSFTPTALSNGINHSPPTLNGAPSPPQRFSNGPASSTSSALTNQQLPATCGARQLSKLKRFLTTLQQFGNDISPEIGEKVRTLVLALVNSTVTIEEFHCKLQEATNFPLRPFVIPFLKANLPLLQRELLHCARAAKQTPSQYLAQHEHLLLNTSIASPADSSELLMEVHGNGKRPSPERRDENNFERDTVPPEPPAKRVCTISPAPRHSPALTVPLMNPGGQFHPTPPPLQHYTLEDIATSHLYREPNKMLEHREVRERHHNLSLNGGYQDELVDHRLTEREWADEWKHLDHALNCIMEMVEKTRRSMAVLRRCQESDREELNYWKRRFNENTELRKTGTELVSRQHSPGSTDSLSNDSQREFTSRPATGYVPVEFWKKTEEAVNKVKIQAMSEVQKAVAEAEQKAFEVIATERARMEQTIADVKRQAAEDAFLVINEQEESTENCWNCGRKASETCSGCNIARYCGSFCQHKDWERHHRLCGQSLHGHSPHSQSRPLLPGGRGSARSADCSVPSPALDKTSATTSRSSTPASVTAIDANGL
